The numbers were not newly measured in patent US20170226145A1, “METHODS OF EXTRACTION AND PURIFICATION FROM STEVIA REBAUDIANA OF COMPOSITIONS WITH ENHANCED REBAUDIOSIDE-M CONTENT, USES OF SAID COMPOSITION AND NATURAL SWEETENER COMPOSITIONS WITH SAID COMPOSITION” (GLG LIFE TECH CORPORATION, priority 2014, published 2017), which cites them from elsewhere.

The conditions of this series: Table 1, background data; cited from earlier work.

In the case of `C=C1C[C@@]23CC[C@H]4[C@@](C)(CCC[C@@]4(C)C(=O)O[C@@H]4O[C@H](CO)[C@@H](O)[C@H](O)[C@H]4O)[C@@H]2CC[C@]1(O[C@@H]1O[C@H](CO)[C@@H](O)[C@H](O)[C@H]1O[C@@H]1O[C@@H](C)[C@H](O)[C@@H](O)[C@H]1O)C3` [Dulcoside A], the Quality of taste entry was “Very bitter”.

Take `C=C1C[C@@]23CC[C@H]4[C@@](C)(CCC[C@@]4(C)C(=O)O[C@@H]4O[C@H](CO)[C@@H](O)[C@H](O)[C@H]4O[C@@H]4O[C@H](CO)[C@@H](O)[C@H](O)[C@H]4O)[C@@H]2CC[C@]1(O[C@@H]1O[C@H](CO)[C@@H](O)[C@H](O[C@@H]2O[C@H](CO)[C@@H](O)[C@H](O)[C@H]2O)[C@H]1O[C@@H]1O[C@H](CO)[C@@H](O)[C@H](O)[C@H]1O)C3` [Rebaudioside D]: the Quality of taste result is “Like sucrose”.

Take `C=C1C[C@@]23CC[C@H]4[C@@](C)(CCC[C@@]4(C)C(=O)O[C@@H]4O[C@H](CO)[C@@H](O)[C@H](O)[C@H]4O[C@@H]4O[C@H](CO)[C@@H](O)[C@H](O)[C@H]4O)[C@@H]2CC[C@]1(O[C@@H]1O[C@H](CO)[C@@H](O)[C@H](O)[C@H]1O[C@@H]1O[C@H](CO)[C@@H](O)[C@H](O)[C@H]1O)C3` [Rebaudioside E]: the Quality of taste result is “Like sucrose”.

For `C=C1C[C@@]23CC[C@H]4[C@@](C)(CCC[C@@]4(C)C(=O)O[C@@H]4O[C@H](CO)[C@@H](O)[C@H](O)[C@H]4O)[C@@H]2CC[C@]1(O[C@@H]1O[C@H](CO)[C@@H](O)[C@H](O)[C@H]1O)C3` [Rubusoside], the Quality of taste entry is given as “Very bitter”.

In the case of `C=C1C[C@@]23CC[C@H]4[C@@](C)(CCC[C@@]4(C)C(=O)O)[C@@H]2CC[C@]1(O)C3` [Steviol], the Quality of taste result is reported as “Very bitter”.

For the compound `C=C1C[C@@]23CC[C@H]4[C@@](C)(CCC[C@@]4(C)C(=O)O)[C@@H]2CC[C@]1(O[C@@H]1O[C@H](CO)[C@@H](O)[C@H](O)[C@H]1O[C@@H]1O[C@H](CO)[C@@H](O)[C@H](O)[C@H]1O)C3` [Steviolbioside], the Quality of taste result was “Unpleasant”.

Regarding `C=C1C[C@@]23CC[C@H]4[C@@](C)(CCC[C@@]4(C)C(=O)O[C@@H]4O[C@H](CO)[C@@H](O)[C@H](O)[C@H]4O)[C@@H]2CC[C@]1(O[C@@H]1O[C@H](CO)[C@@H](O)[C@H](O)[C@H]1O[C@@H]1O[C@H](CO)[C@@H](O)[C@H](O)[C@H]1O)C3` [Stevioside], the Quality of taste entry is “Bitter”.

In the case of Rebaudioside B, the Quality of taste entry is given as “Bitter”.

Turning to Rebaudioside C, the Quality of taste entry is “Biutter”.
